{
  "sequences": {"note": "By UniProt entry, the sequences of proteins in these tests, tags left out.", "UniProt Q64373": "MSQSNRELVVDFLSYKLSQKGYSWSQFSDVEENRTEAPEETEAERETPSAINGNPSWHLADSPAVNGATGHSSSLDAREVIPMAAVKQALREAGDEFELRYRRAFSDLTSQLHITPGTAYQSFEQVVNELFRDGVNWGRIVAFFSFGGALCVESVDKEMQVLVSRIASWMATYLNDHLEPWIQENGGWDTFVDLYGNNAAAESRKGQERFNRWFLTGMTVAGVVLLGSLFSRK"},
  "source": "patent US20190192484A1",
  "about": "(UNIVERSITY OF CHICAGO, published 2019)",
  "target": "BCL-xL (endogenous, fibroblasts) (mouse) (UniProt Q64373)",
  "experiment": "immunoprecipitation with anti-BCL-xL antibody, immunoblot with anti-BAD (FIG. 7B)",
  "note": "These are yes or no findings as the source states them, for the method shown. Some entries that bind do so weakly or less than the wild type.",
  "data": [
    {"binder": "BAD(S26A) mutant (protein, UniProt Q61337 1-204, looked up) MGTPKQPSLAPAHALGLRKSDPGIRALGSDAGGRRWRPAAQSMFQIPEFEPSEQEDASATDRGLGPSLTEDQPGPYLAPGLLGSNIHQQGRAATNSHHGGAGAMETRSRHSSYPAGTEEDEGMEEELSPFRGRSRSAPPNLWAAQRYGRELRRMSDEFEGSFKGLPRPKSAGTATQMRQSAGWTRIIQSWWDRNLGKGGSTPSQ", "values": [
      {"measurement": "binding", "value": "binds"}
    ]}
  ]
}
